Assay results: PMC9761386
No constants are given. Whether binding was seen depends on the method and setting. In cells and extracts the contact can be indirect. These calls come from enrichment with a bait or labelling near it, and not all partners need be listed.

Chains of the proteins cited; added tags and fusions are not shown. Residues count along the entry.
UniProt Q9EP73, residues 19-290: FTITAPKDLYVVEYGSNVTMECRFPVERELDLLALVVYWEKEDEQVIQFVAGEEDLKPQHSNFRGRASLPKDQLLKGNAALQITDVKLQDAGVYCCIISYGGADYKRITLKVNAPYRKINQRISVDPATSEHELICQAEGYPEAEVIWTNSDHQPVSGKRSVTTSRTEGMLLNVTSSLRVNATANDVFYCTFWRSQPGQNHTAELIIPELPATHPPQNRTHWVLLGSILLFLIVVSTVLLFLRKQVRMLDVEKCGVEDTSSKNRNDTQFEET

B1: Rho GTPase Activating Protein 35 (protein, UniProt Q91YM2 1-1499)
chain: MMMARKQDVRIPTYNISVVGLSGTEKEKGQCGIGKSCLCNRFVRPSADEFHLDHTSVLSTSDFGGRVVNNDHFLYWGEVSRSLEDCVECKMHIVEQTEFIDDQTFQPHRSTALQPYIKRAAATKLASAEKLMYFCTDQLGLEQDFEQKQMPDGKLLVDGFLLGIDVSRGMNRNFDDQLKFVSNLYNQLAKTKKPIVVVLTKCDEGVERYIRDAHTFALSKKNLQVVETSARSNVNVDLAFSTLVQLIDKSRGKTKIIPYFEALKQQSQQIATAKDKYEWLVSRIVKNHNENWPSVSRKMQASPEYQDYVYLEGTQKAKKLFLQHIHRLKHEHIERRRKLYLAALPLAFEALIPNLDEVDHLSCIKAKKLLETKPEFLKWFVVLEETPWDATSHIDNMENERIPFDLMDTVPAEQLYETHLEKLRNERKRAEMRRAFKENLETSPFITPGKPWEEARSFIMNEDFYQWLEESVYMDIYGKHQKQIIDRAKEEFQELLLEYSELFYELELDAKPSKEKMGVIQDVLGEEQRFKALQKLQAERDALILKHIHFVYHPTKETCPSCPACVDAKIEHLISSRFIRPSDRNQKNSLSDLNIDRINLVILGKDGLARELANEIRALCTNDDKYVIDGKMYELSLRPIEGNVRLPVNSFQTPTFQPHGCLCLYNSKESLSYVVESIEKSRESTLGRRDNHLVHLPLTLILVNKRGDTSGETLHSLIQQGQQIASKLQCVFLDPASAGIGYGRNINEKQISQVLKGLLDSKRNLNLVSSTASIKDLADVDLRIVMCLMCGDPFSADDVLSPVLQSQTCKSSHCGSSNSVLLELPIGLHKKRIELSVLSYHSSFSIRKSRLVHGYIVFYSAKRKASLAMLRAFLCEVQDIIPIQLVALTDGAIDVLDNDLSREQLTEGEEIAQEIDGRFTSIPCSQPQHKLELFHPFFKDVVEKKNIIEATHMYDNVAEACSTTEEVFNSPRAGSPLCNSNLQDSEEDVEPPSYHLFREDATLPSLSKDHSKFSMELEGNDGLSFIMSNFESKLNNKVPPPVKPKPPVHFDITKDLSYLDQGHREGQRKSMSSSPWMPQDGFDPSDYAEPMDAVVKPRNEEENIYSVPHDSTQGKIITIRNINKAQSNGSGNGSDSEMDTSSLERGRKVSAVSKPVLYRTRCTRLGRFASYRTSFSVGSDDELGPIRKKEEDQASQGYKGDNAVIPYETDEDPRRRNILRSLRRNTKKPKPKPRPSITKATWESNYFGVPLTTVVTPEKPIPIFIERCIEYIEATGLSTEGIYRVSGNKSEMESLQRQFDQDHNLDLAEKDFTVNTVAGAMKSFFSELPDPLVPYSMQIDLVEAHKINDREQKLHALKEVLKKFPKENHEVFKYVISHLNKVSHNNKVNLMTSENLSICFWPTLMRPDFSSMDALTATRSYQTIIELFIQQCPFFFYNRPISEPPGAAPGSPSAMAPTVPFLTSTPATSQPSPPQSPPPTPQSPMQPLLSSQLQAEHTL
B2: ARF GTPase-activating protein GIT1 (protein, UniProt Q68FF6 1-770)
chain: MSRKGPRAEVCADCSAPDPGWASISRGVLVCDECCSVHRSLGRHISIVKHLRHSAWPPTLLQMVHTLASNGANSIWEHSLLDPAQVQSGRRKANPQDKVHPIKSEFIRAKYQMLAFVHKLPCRDDDGVTAKDLSKQLHSSVRTGNLETCLRLLSLGAQANFFHPEKGTTPLHVAAKAGQTLQAELLVVYGADPGSPDVNGRTPIDYARQAGHHELAERLVECQYELTDRLAFYLCGRKPDHKNGHYIIPQMADRSRQKCMSQSLDLSELAKAAKKKLQALSNRLFEELAMDVYDEVDRRENDAVWLATQNHSTLVTERSAVPFLPVNPEYSATRNQGRQKLARFNAREFATLIIDILSEAKRRQQGKSLSSPTDNLELSARSQSELDDQHDYDSVASDEDTDQEPLPSAGATRNNRARSMDSSDLSDGAVTLQEYLELKKALATSEAKVQQLMKVNSSLSDELRRLQREIHKLQAENLQLRQPPGPVPPPSLPSERAEHTLMGPGGSTHRRDRQAFSMYEPGSALKPFGGTPGDELATRLQPFHSTELEDDAIYSVHVPAGLYRIRKGVSASSVPFTPSSPLLSCSQEGSRHASKLSRHGSGADSDYENTQSGDPLLGLEGKRFLELSKEDELHPELESLDGDLDPGLPSTEDVILKTEQVTKNIQELLRAAQEFKHDSFVPCSEKIHLAVTEMASLFPKRPALEPVRSSLRLLNASAYRLQSECRKTVPPEPGAPVDFQLLTQQVIQCAYDIAKAAKQLVTITTREKKQ
B3: Glutathione Peroxidase 7 (protein, UniProt Q99LJ6 19-186)
chain: QSEQDFYDFKAVNIRGKLVSLEKYRGSVSLVVNVASECGFTDQNYRALQQLQRDLGPHHFNVLAFPCNQFGQQEPDTNREIENFARRTYSVSFPMFSKIAVTGTGAHPAFKYLTQTSGKEPTWNFWKYLVDPDGKVVGAWDPTVPVAEIKPRITEQVMKLILRKREDL

molecular target: WT PD-L1 (programmed death ligand 1) tagged with GFP (mouse) (UniProt Q9EP73); test: affinity purification with mass spectrometry; GFP-tagged PD-L1 precipitated from SVEC4-10 lysate overnight with GST-tagged anti-GFP nanobody on GST beads, washed 4x in TBS with 0.1% Tween-20; cells with or without sodium vanadate; in-gel trypsin digest, LC-MS/MS; N = 6 samples per cell type

Binder | binding
B1 | binds
B2 | binds
B3 | binds
